# Library screening results

Values are the deposited “Percent Effect”, in %.
The record does not define 0% and 100%; most values in the screen are far below 50% and negative numbers occur (in some assays of this library far below -100).
Compounds were drawn at random from those tested, without regard to their results.
A dash means the value is not listed here; it may have been measured.

Mtb growth Cornell: 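Whole-cell assay for inhibitors of Mycobacterium tuberculosis growth, labelled Cornell in the record; the read-out is not stated. The concentration is filed as 10 mM, unlikely as a test dose, so the dose is not known. The record gives no direction; compounds strong in two other growth screens of this library score well above the rest, so higher reads as stronger inhibition. Size under these conditions: about 53,000 compounds, about 900 of them at 50% or above in at least one test.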
Mtb heat-shock: 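Assay on Mycobacterium tuberculosis, filed only as a heat shock assay from Cornell; the read-out is not stated. The concentration is filed as 10 mM, unlikely as a test dose, so the dose is not known. Higher reads as stronger inhibition (inferred: compounds with an IC50 in retests scored well above the rest). About 69,000 compounds were tested under these conditions; 1.4% (about 930) showed 50% or more at least once.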

Compound	Mtb growth Cornell	Mtb heat-shock
c1ccc(C2(NCC3CNc4ccnn4C3)CCC2)cc1 (centres undefined)	15.23	15.84
Cc1nc(NCCCn2cccn2)c2c(n1)c(C)nn2C	-	-4.366
COCC1CCN(C(=O)c2cc(O)nc(CC(C)C)c2)CC1	2.71	3.406
Cc1cc(C)c(CNC(=O)NCc2ccc(F)c(C)c2)c(=O)[nH]1	-	-4.234
O=C(CN1CCOc2ccccc2C1)N1Cc2cnn(CCO)c2C1	-	4.543
O=c1c(C(F)(F)F)cccn1Cc1nnc(-c2cccnc2)o1	1.875	-11.19
Cc1ccnc(NCCNC(=O)CCNC(=O)c2ccccc2F)c1	2.738	-18.44
CC1(C)CC(=O)N(CC(=O)Nc2ccon2)c2ccccc21	11.29	77.91
COc1c(C)cnc(CN2CCCC(Cn3nc(C)nc3C)C2)c1C (centres undefined)	-	-12.73
Cc1noc(C2CCN(C(=O)CCc3ccccn3)CC2)n1	-	13.4
COCC(=O)N1CCC2(CC1)CN(c1ncccn1)CCO2	1.751	-1.475
CC(=O)N1CCC(CN2CCN(Cc3nccn3C)C(C)C2)CC1 (centres undefined)	3.215	11.55
CN1CCN(C)C2(CCN(C(=O)CC(F)(F)F)CC2)C1=O	2.806	3.493
Cn1cc(CC(=O)N2CCCC(n3cncn3)C2)cn1 (centres undefined)	-36.59	-5.152
Cc1csc2ncc(-c3ccnc(N4CCCC4)n3)c(=O)n12	16.21	5.682
CCOC(=O)C1CCCN(c2nccc(-n3nc(C)cc3C)n2)C1 (centres undefined)	22.99	-15.82
CCN(Cc1ccncc1)C1CCCN(C/C=C/c2ccc(F)cc2)C1 (centres undefined)	-9.609	5.329
Nc1nnnn1NCc1ccccc1C(F)(F)F	-4.533	-12.86
CCOCC1CN(Cc2ccc(OC)cc2)Cc2nn(C)cc21.O=C(O)C(F)(F)F (centres undefined)	-10.16	-4.598
CCOc1ccc(OCC(O)CN2CCN(S(C)(=O)=O)CC2)cc1 (centres undefined)	-	-5.537
COCCC(=O)NC1CCN(CC2(c3cccc(F)c3)CCCC2)CC1.Cl	9.901	23.79
Cc1ncc(CNC(=O)c2nn(C)c3c2CS(=O)(=O)CC3)s1	-	6.642
CN1CCc2nc3cc(C(=O)NCc4cccs4)ccc3c(=O)n2CC1	-2.982	-11.22
Cn1cc(CN2CCc3onc(C(=O)Nc4cccnc4)c3C2)cn1	-14.93	36.5
Cc1nnc(NC(=O)CN2CCCC2c2c(C)nn(C)c2C)s1 (centres undefined)	-	-3.646
COc1ccc(C)cc1S(=O)(=O)NCC(c1cccn1C)N(C)C (centres undefined)	-7.543	5.357
Cc1nc(N2CCN(S(C)(=O)=O)CC2)cc(-n2cnc(C)c2C)n1	-2.72	-17.94
O=C(O)C(F)(F)F.[H][C@@]12C[C@H](C(=O)N3CCCC3)[C@@]([H])(CN(CC(C)C)C1)O2	16.13	35.89
[H][C@]12CN(C(=O)C3CCC3)C[C@@]1([H])C(=O)N(c1ccccc1)C2	6.558	-22.04
CN(C)c1ccc(C(=O)N2CCC(c3n[nH]c(C4CC4)n3)CC2)cc1	4.649	-18.58
CC(=O)NCCc1ccc(S(=O)(=O)Nc2ccc(C)cc2F)s1	13.08	9.781
Cc1nc2ccnn2c(C)c1CCC(=O)N1CCC(C(N)=O)CC1	17.46	8.829
O=C(c1cccc2[nH]ccc12)N1CCC2(CCOC2)C1 (centres undefined)	0.07985	8.339
Cc1cccc(N2Cc3nc(=O)n(Cc4cccc(F)c4)n3C2=O)c1	-8.733	23.28
Cc1ccc(C(=O)N2CCCC(n3cncn3)C2)o1 (centres undefined)	-6.602	-0.06939
CSc1ccc2cc(CN(C)CCO)c(=O)[nH]c2c1	1.63	3.429
CCCc1nc(N2CCSCC2)c2c(n1)c(C)nn2CC	16.49	14.93
Cc1cc(N2CCOC(c3ccccn3)C2)nc(N)n1 (centres undefined)	39.79	0.5387
CCOc1ncccc1NC(=O)c1cccs1	-1.595	-26.07
Oc1cc(C2CCCN(Cc3cccs3)C2)nc(-c2ccccn2)n1 (centres undefined)	76.98	99.87
Cc1nn(C)c(C)c1CCn1cncc1-c1ccc2c(c1)CC(C)N2C.Cl (centres undefined)	64.61	15.02
Cc1nc(CN2CCC3(CCCO3)CC2)c2ccccn12	-36.85	77.67
O=C(NC1CCN(CC2CC2)C1)c1ccc(N2CCC(O)CC2)cc1 (centres undefined)	-	-5.851
COCC1CCCN(C(=O)c2cc(Cn3ccc4ccccc43)[nH]n2)C1 (centres undefined)	28.38	10.72
O=C(NCc1cccnc1-n1cncn1)c1cncc(Br)c1	1.988	1.343
Cc1nc2c(c(C)c1CC(=O)NCc1ccco1)c(=O)[nH]n2C	-	-7.591
COc1cccc(S(=O)(=O)N2C[C@H](OC)[C@]3(CCCO3)C2)c1	1.033	-14.68
CC1CCC(O)(CSc2nnnn2C2CC2)CC1 (centres undefined)	20.08	29.44
Cc1nc(N(C)C)ncc1C(=O)N[C@@H]1CCc2ccccc21	17.73	-4.847
O=C1NCCCCC1NC(=O)N1CCc2ccccc21 (centres undefined)	4.618	-19.34
CC(C)Oc1ncccc1CNC(=O)N1CCC(C(N)=O)C1 (centres undefined)	-	-0.7008
Nc1nccc(N2C[C@@H](CN3CCCCC3)[C@@H](CO)C2)n1	-	-10.48
N#Cc1ccccc1CN(CCO)Cc1ccsc1	10.9	-19.04

For reference, 6 entries once more:

Compound,Mtb growth Cornell,Mtb heat-shock
N#Cc1ccccc1CN(CCO)Cc1ccsc1,10.9,-19.04
Nc1nnnn1NCc1ccccc1C(F)(F)F,-4.533,-12.86
COCC1CCN(C(=O)c2cc(O)nc(CC(C)C)c2)CC1,2.71,3.406
CCOCC1CN(Cc2ccc(OC)cc2)Cc2nn(C)cc21.O=C(O)C(F)(F)F (centres undefined),-10.16,-4.598
O=C(c1cccc2[nH]ccc12)N1CCC2(CCOC2)C1 (centres undefined),0.07985,8.339
Cc1nn(C)c(C)c1CCn1cncc1-c1ccc2c(c1)CC(C)N2C.Cl (centres undefined),64.61,15.02

Measurements from “University of Dundee, Small-Polar-MMV Screening Library” (2021), ChEMBL document CHEMBL3988442.